Data source: PubChem BioAssay AID1259304 (Sanger Institute, 2017)

- Test: 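Kinase siRNAs that act in synergy with BYL719, cetuximab or trametinib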 (secondary deconvolution rescreen of primary hits)
- Cells: HT115 human colorectal cancer cells
- Reagents: single siRNA against human genes
- Conditions: anchor drugs BYL719 at 1 µM, cetuximab at 5 µg/ml or trametinib at 10 nM, each set against DMSO vehicle
- Measured: 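Replicate-averaged viability as a fraction of non-targeting control, with a drug-siRNA synergy score from joint versus separate effects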
- Scale: synergy score with BYL719: higher = stronger synthetic lethal interaction with BYL719; synergy score with cetuximab: higher = stronger synthetic lethal interaction with cetuximab; synergy score with trametinib: higher = stronger synthetic lethal interaction with trametinib; viability, siRNA with trametinib and viability, siRNA with DMSO vehicle: higher = more cells surviving
- Call rule: 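a synergy score over 0.10 with at least one of the three anchor drugs makes an active call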
- Calls: active = synergy with at least one anchor drug; inactive = no synergy with any anchor drug
The whole screen tested 160 reagents; below is a part drawn at random. Over the whole deposit, 88 (55%) were called active. 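Four siRNAs per gene, each called on its own in one cell line; calls are not confirmed gene-level hits.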 Entries without a mark were called inactive. The numbers tell different reagents against one gene apart. Viability is capped at 1. No sequences are given here. The record does not give: the amount of reagent, the time to read-out.

target gene	reagent no.	synergy score with BYL719	synergy score with cetuximab	synergy score with trametinib	viability, siRNA with trametinib (fraction of control)	viability, siRNA with DMSO vehicle (fraction of control)
ACVR1 (activin A receptor type 1)	1	-0.0314	-0.136	-0.0254	1	1
ACVR1 (activin A receptor type 1)	2	0.0279 (active)	0.0113	0.11	0.795	0.929
ACVR1 (activin A receptor type 1)	3	-0.119 (active)	0.209	0.331	0.621	0.978
ACVR1 (activin A receptor type 1)	4	-0.136	-0.0987	0.0639	0.76	0.845
BRAF (B-Raf proto-oncogene, serine/threonine kinase)	1	-0.0616 (active)	0.068	0.179	0.4	0.594
BRAF (B-Raf proto-oncogene, serine/threonine kinase)	2	0.0829 (active)	0.2	0.291	0.438	0.748
BRAF (B-Raf proto-oncogene, serine/threonine kinase)	3	-0.0372	-0.0725	-0.119	0.572	0.465
BRAF (B-Raf proto-oncogene, serine/threonine kinase)	4	0.0546	0.0597	0.0964	0.703	0.82
PINK1 (PTEN induced kinase 1)	1	-0.122	-0.0375	0.0505	0.826	0.899
PINK1 (PTEN induced kinase 1)	2	0.151 (active)	0.147	0.416	0.437	0.875
PINK1 (PTEN induced kinase 1)	3	0.0515 (active)	0.235	0.279	0.566	0.867
PINK1 (PTEN induced kinase 1)	4	-0.0437 (active)	-0.0163	0.19	0.689	0.902
HSPB8 (heat shock protein family B (small) member 8)	1	-0.0457 (active)	0.0466	0.156	0.435	0.607
HSPB8 (heat shock protein family B (small) member 8)	2	-0.0582 (active)	0.0398	0.101	0.874	1
HSPB8 (heat shock protein family B (small) member 8)	3	0.0309	-0.0775	0.0854	0.751	0.859
HSPB8 (heat shock protein family B (small) member 8)	4	-0.0569 (active)	0.0354	0.185	0.609	0.815
PIM1 (Pim-1 proto-oncogene, serine/threonine kinase)	1	0.0218	0.0668	0.0311	0.705	0.755
PIM1 (Pim-1 proto-oncogene, serine/threonine kinase)	2	0.0871 (active)	0.0821	0.208	0.492	0.718
PIM1 (Pim-1 proto-oncogene, serine/threonine kinase)	3	-0.0105	-0.142	0.0541	0.827	0.904
PIM1 (Pim-1 proto-oncogene, serine/threonine kinase)	4	-0.108 (active)	-0.0665	0.11	0.75	0.882
SF3B1 (splicing factor 3b subunit 1)	1	-0.0134	-0.0159	-0.0241	0.499	0.487
SF3B1 (splicing factor 3b subunit 1)	2	-0.0328	-0.104	-0.0545	0.477	0.433
SF3B1 (splicing factor 3b subunit 1)	3	-0.0841	-0.116	-0.0126	0.561	0.562
SF3B1 (splicing factor 3b subunit 1)	4	-0.0944	-0.0726	-0.022	0.418	0.407
KCNH8 (potassium voltage-gated channel subfamily H member 8)	1	-0.104 (active)	0.185	0.393	0.296	0.707
KCNH8 (potassium voltage-gated channel subfamily H member 8)	2	-0.000373 (active)	0.00787	0.169	0.284	0.465
KCNH8 (potassium voltage-gated channel subfamily H member 8)	3	-0.149	-0.00735	0.0165	0.829	0.867
KCNH8 (potassium voltage-gated channel subfamily H member 8)	4	-0.0309 (active)	0.0579	0.155	0.597	0.772
PIK3CA	1	-0.111	0.0744	-0.0312	0.713	0.7
PIK3CA	2	-0.126 (active)	0.104	0.221	0.485	0.725
PIK3CA	3	-0.11	-0.111	0.0497	0.74	0.81
PIK3CA	4	-0.114 (active)	-0.0421	0.244	0.668	0.936
AK2 (adenylate kinase 2)	1	-0.0944 (active)	0.13	0.109	0.701	0.832
AK2 (adenylate kinase 2)	2	0.0222 (active)	0.0984	0.307	0.668	1
AK2 (adenylate kinase 2)	3	-0.138	-0.146	0.049	0.926	1
AK2 (adenylate kinase 2)	4	0.0181 (active)	0.192	0.368	0.5	0.89

Limited to “viability, siRNA with DMSO vehicle (fraction of control)”, for 6 of the entries above:
PIK3CA #1 = 0.7
PIK3CA #2 = 0.725 (active)
PIK3CA #3 = 0.81
PIK3CA #4 = 0.936 (active)
AK2 (adenylate kinase 2) #1 = 0.832 (active)
AK2 (adenylate kinase 2) #2 = 1 (active)
